In patent US20070249620A1, “Urea Derivative” (priority 2004, published 2007):
Some results were stated once for a whole list of compounds, not compound by compound. For at least one compound, name, drawing or mass did not settle the structure.

Each compound was assayed against T1, mouse DGAT1 (Mus musculus, UniProt Q9Z2A7) (assay: DGAT1 inhibitory effect test (microsome fraction, [14C]-oleoyl-CoA, triglyceride radioactivity by TLC)). Conditions: concentration of the test compound 0.1 μg/ml; mouse DGAT1 microsomes, 23° C., 30 minutes.
T1 construct: made in house; host or cells: insect cells (High Five, Sf9, Sf21, etc.), baculovirus expression system (Invitrogen)
T1 sequence (Q9Z2A7 1-498): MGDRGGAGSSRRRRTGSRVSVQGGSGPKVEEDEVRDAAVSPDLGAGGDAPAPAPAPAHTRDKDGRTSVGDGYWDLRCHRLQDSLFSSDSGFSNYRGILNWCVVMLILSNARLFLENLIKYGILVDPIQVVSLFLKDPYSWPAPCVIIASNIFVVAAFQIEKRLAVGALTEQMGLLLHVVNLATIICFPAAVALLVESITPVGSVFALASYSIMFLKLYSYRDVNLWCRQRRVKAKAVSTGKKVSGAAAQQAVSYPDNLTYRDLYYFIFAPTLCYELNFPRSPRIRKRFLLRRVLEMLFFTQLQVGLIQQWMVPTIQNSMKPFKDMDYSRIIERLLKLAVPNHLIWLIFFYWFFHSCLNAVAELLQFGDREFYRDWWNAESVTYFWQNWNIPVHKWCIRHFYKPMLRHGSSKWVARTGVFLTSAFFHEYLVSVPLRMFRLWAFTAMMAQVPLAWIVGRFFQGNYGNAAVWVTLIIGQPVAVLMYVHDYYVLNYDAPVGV
Type: biochemical
Procedure: The cDNA which encodes mouse DGAT1 was cloned from a mouse cDNA library by polymerase chain reaction (hereinafter referred to as “PCR”) and introduced into an insect cell virus vector (baculovirus expression system, Invitrogen). After insect cells (High Five, Sf9, Sf21, etc., Invitrogen) were infected with the virus, the cells were collected in buffer A [0.1M sucrose, 50 mM KCl, 40 mM potassium phosphate (pH 7.4), 30 mM EDTA, 1% Protease inhibitor cocktail (SIGMA, P-8340)] and crushed with a Polytron homogenizer. The supernatant obtained by subjecting the homogenate to low speed centrifugal processing (10,000 ×g, 30 minutes) was further subjected to higher-speed centrifugal processing (100,000 ×g, 60 minutes) and the precipitate was resuspended in buffer A as the microsome fraction and used as DGAT1 enzyme. The DGAT1 enzyme was divided into small volumes and stored at −80° C.
(2) DGAT1 Inhibitory Effect Test
The reaction liquid of the following composition [175 mM Tris-HCl (pH 8.0), 8 mM MgCl2, 1 mg/ml BSA, 0.5 mM 1,2-dioleoyl-sn-glycerol (EtOH solution of 10-fold concentration, 10% added), 30 μM[14C]-oleoyl-CoA (about 50 mCi/mmol), 0.5% triton X-100, DGAT1 enzyme (10 μg) obtained in Test Example 1(1), test compound or vehicle (DMSO/MeOH, 7:3 solution, 5% added), total volume 50 μl] was incubated at room temperature (23° C.) for 30 minutes. A reaction terminating solution (70 μl) consisting of isopropanol/1-heptane/water (80:20:2, v/v/v) was added to the reaction solution and stirred, and subsequently stirred with water (30 μl) and 1-heptane (100 μl). The 1-heptane layer (50 μl) was spotted onto a TLC plate and developed with a developing solvent consisting of 1-hexane/diethyl ether/acetic acid (85:15:1, v/v/v). Radioactivity of triglyceride fraction was quantified by BAS2000 bio image analyzer (Fuji Film) and the inhibitory effect of the test compounds was calculated by the following formula through comparison with control. Here, radioactivity at no reaction (0 minutes incubation) was assumed as background. Inhibitory ratio=100−[(Radioactivity when test compound was added)−(Background)]/[(Radioactivity by control)−(Background)]×100
`COc1cc(NC(=O)Nc2ccc(C3CCN(C(=O)Nc4ncc(F)cc4F)CC3)cc2)cc(OC)c1` [Example 354, 4-{4-[3-(3,5-dimethoxy-phenyl)-ureido]-phenyl}-piperidine-1-carboxylic acid(3,5-difluoro-pyridin-2-yl)-amide] was tested, and the Inhibitory ratio was ≥ 50%. For `CCOc1cccc(NC(=O)Nc2ccc(C3CCN(C(=O)Nc4ncc(F)cc4F)CC3)cc2)c1` [Example 355, 4-{4-[3-(3-ethoxy-phenyl)-ureido]-phenyl}-piperidine-1-carboxylic acid(3,5-difluoro-pyridin-2-yl)-amide], the Inhibitory ratio was ≥ 50%. In the case of `CCOc1ccccc1NC(=O)Nc1ccc(N2CCN(C(=O)Nc3ncccc3C#N)CC2)cc1` [Example 357, 4-{4-[3-(2-ethoxy-phenyl)-ureido]-phenyl}-piperazine-1-carboxylic acid(3-cyano-pyridin-2-yl)-amide], the Inhibitory ratio is reported as ≥ 50%. In the case of `CCOc1cccc(NC(=O)Nc2ccc(N3CCN(C(=O)Nc4ncccc4C#N)CC3)cc2)c1` [Example 358, 4-{4-[3-(3-ethoxy-phenyl)-ureido]-phenyl}-piperazine-1-carboxylic acid(3-cyano-pyridin-2-yl)-amide], the Inhibitory ratio is reported as ≥ 50%. With `COc1cc(NC(=O)Nc2ccc(N3CCN(C(=O)Nc4ncccc4C#N)CC3)cc2)cc(OC)c1` [Example 359, 4-{4-[3-(3,5-dimethoxy-phenyl)-ureido]-phenyl}-piperazine-1-carboxylic acid(3-cyano-pyridin-2-yl)-amide] the Inhibitory ratio was ≥ 50%. `N#Cc1cccnc1NC(=O)N1CCN(c2ccc(NC(=O)Nc3ccccc3OC(F)(F)F)cc2)CC1` [Example 360, 4-{4-[3-(2-trifluoromethoxy-phenyl)-ureido]-phenyl}-piperazine-1-carboxylic acid(3-cyano-pyridin-2-yl)-amide] was tested, and the Inhibitory ratio was ≥ 50%. In the case of `N#Cc1cccnc1NC(=O)N1CCN(c2ccc(NC(=O)Nc3ccccc3OC(F)F)cc2)CC1` [Example 361, 4-{4-[3-(2-difluoromethoxy-phenyl)-ureido]-phenyl}-piperazine-1-carboxylic acid(3-cyano-pyridin-2-yl)-amide], the Inhibitory ratio is reported as ≥ 50%. `N#Cc1cccnc1NC(=O)N1CCN(c2ccc(NC(=O)Nc3cccc4c3OCCO4)cc2)CC1` [Example 362, 4-{4-[3-(2,3-dihydro-1,4-benzodioxin-5-yl)-ureido]-phenyl}-piperazine-1-carboxylic acid(3-cyano-pyridin-2-yl)-amide] was tested, and the Inhibitory ratio was ≥ 50%. In the case of `CCOc1ccc(F)cc1NC(=O)Nc1ccc(N2CCN(C(=O)Nc3ncccc3C#N)CC2)nc1` [Example 363, 4-{5-[3-(2-ethoxy-5-fluoro-phenyl)-ureido]-pyridin-2-yl}-piperazine-1-carboxylic acid(3-cyano-pyridin-2-yl)-amide], the Inhibitory ratio is reported as ≥ 50%. `COc1cccc(NC(=O)Nc2ccc(N3CCN(C(=O)Nc4ncccc4C#N)CC3)cc2)c1OC` [Example 364, 4-{4-[3-(2,3-dimethoxy-phenyl)-ureido]-phenyl}-piperazine-1-carboxylic acid(3-cyano-pyridin-2-yl)-amide] was tested, and the Inhibitory ratio was ≥ 50%. In the case of `COc1ccc(C)cc1NC(=O)Nc1ccc(C2CCN(C(=O)Nc3ncccc3C#N)CC2)cc1` [Example 369, 4-{4-[3-(2-methoxy-5-methyl-phenyl)-ureido]-phenyl}-piperidine-1-carboxylic acid(3-cyano-pyridin-2-yl)-amide], the Inhibitory ratio is reported as ≥ 50%. For `COc1ccccc1NC(=O)Nc1ccc(C2CCN(C(=O)Nc3ncccc3C#N)CC2)cc1` [Example 370, 4-{4-[3-(2-methoxy-phenyl)-ureido]-phenyl}-piperidine-1-carboxylic acid(3-cyano-pyridin-2-yl)-amide], the Inhibitory ratio was ≥ 50%. In the case of `N#Cc1cccnc1NC(=O)N1CCC(c2ccc(NC(=O)Nc3ccccc3F)cc2)CC1` [Example 371, 4-{4-[3-(2-fluoro-phenyl)-ureido]-phenyl}-piperidine-1-carboxylic acid(3-cyano-pyridin-2-yl)-amide], the Inhibitory ratio is reported as ≥ 50%. With `CCOc1cccc(NC(=O)Nc2ccc(C3CCN(C(=O)Nc4ncccc4C#N)CC3)cc2)c1` [Example 372, 4-{4-[3-(3-ethoxy-phenyl)-ureido]-phenyl}-piperidine-1-carboxylic acid(3-cyano-pyridin-2-yl)-amide] the Inhibitory ratio was ≥ 50%. For `COc1cc(C)ccc1NC(=O)Nc1ccc(N2CCN(C(=O)Nc3ncccc3C)CC2)cc1` [Example 373, 4-{4-[3-(2-methoxy-4-methyl-phenyl)-ureido]-phenyl}-piperazine-1-carboxylic acid(3-methyl-pyridin-2-yl)-amide], the Inhibitory ratio was ≥ 50%. For `COc1ccccc1NC(=O)Nc1ccc(N2CCN(C(=O)Nc3ncccc3C)CC2)c(F)c1` [Example 374, 4-{2-fluoro-4-[3-(2-methoxy-phenyl)-ureido]-phenyl}-piperazine-1-carboxylic acid(3-methyl-pyridin-2-yl)-amide], the Inhibitory ratio was ≥ 50%. For `COc1c(C)cccc1NC(=O)Nc1ccc(N2CCN(C(=O)Nc3ncccc3C)CC2)cc1` [Example 375, 4-{4-[3-(2-methoxy-3-methyl-phenyl)-ureido]-phenyl}-piperazine-1-carboxylic acid(3-methyl-pyridin-2-yl)-amide], the Inhibitory ratio was ≥ 50%. In the case of `COc1ncccc1NC(=O)Nc1ccc(N2CCN(C(=O)Nc3ncccc3C)CC2)cc1` [Example 376, 4-{4-[3-(2-methoxy-pyridin-3-yl)-ureido]-phenyl}-piperazine-1-carboxylic acid(3-methyl-pyridin-2-yl)-amide], the Inhibitory ratio is reported as ≥ 50%. In the case of `CCOc1ccc(F)cc1NC(=O)Nc1ccc(N2CCN(C(=O)Nc3c(C)cccc3C)CC2)nc1` [Example 383, 4-{5-[3-(2-ethoxy-5-fluoro-phenyl)-ureido]-pyridin-2-yl}-piperazine-1-carboxylic acid(2,6-dimethyl-phenyl)-amide], the Inhibitory ratio is reported as ≥ 50%. `COc1ccc(C)cc1NC(=O)Nc1ccc(N2CCN(C(=O)Nc3ccc([C@H]4COC(C)(C)O4)cc3C)CC2)cc1` [Example 399, 4-{4-[3-(2-methoxy-5-methyl-phenyl)-ureido]-phenyl}-piperazine-1-carboxylic acid[4-((S)-2,2-dimethyl-1,3-dioxolan-4-yl)-2-methyl-phenyl]-amide] was tested, and the Inhibitory ratio was ≥ 50%. With `COc1ccc(C)cc1NC(=O)Nc1ccc(N2CCN(C(=O)Nc3ccc([C@H](O)CO)cc3C)CC2)cc1` [Example 400, 4-{4-[3-(2-methoxy-5-methyl-phenyl)-ureido]-phenyl}-piperazine-1-carboxylic acid[4-((S)-1,2-dihydroxy-ethyl)-2-methyl-phenyl]-amide] the Inhibitory ratio was ≥ 50%. `COc1ccc(C)cc1NC(=O)Nc1ccc(N2CCN(C(=O)Nc3ccc(N(C)CCO)cc3C)CC2)cc1` [Example 406, 4-{4-[3-(2-methoxy-5-methyl-phenyl)-ureido]-phenyl}-piperazine-1-carboxylic acid{4-[(2-hydroxy-ethyl)-methyl-amino]-2-methyl-phenyl}-amide] was tested, and the Inhibitory ratio was ≥ 50%. `CCOc1cccc(NC(=O)Nc2ccc3c(c2)CCN(C(=O)Nc2ccc(OCCO)cc2Cl)C3)c1` [Example 410, 6-[3-(3-ethoxy-phenyl)-ureido]-3,4-dihydro-1H-isoquinoline-2-carboxylic acid[2-chloro-4-(2-hydroxy-ethoxy)-phenyl]-amide] was tested, and the Inhibitory ratio was ≥ 50%. For `CCOc1ccc(F)cc1NC(=O)Nc1ccc(N2CCN(C(=O)Nc3ncc(Cl)cc3Cl)CC2)cc1` [Example 414, 4-{4-[3-(2-ethoxy-5-fluoro-phenyl)-ureido]-phenyl}-piperazine-1-carboxylic acid(3,5-dichloro-pyridin-2-yl)-amide], the Inhibitory ratio was ≥ 50%. For `CCOc1ccccc1NC(=O)Nc1ccc(N2CCN(C(=O)Nc3ncc(Cl)cc3Cl)CC2)cc1` [Example 417, 4-{4-[3-(2-ethoxy-phenyl)-ureido]-phenyl}-piperazine-1-carboxylic acid(3,5-dichloro-pyridin-2-yl)-amide], the Inhibitory ratio was ≥ 50%.
